Assay results: PubChem BioAssay AID1671190 (National Center for Advancing Translational Sciences (NCATS), 2021)
In all, about 580,000 compounds went through this assay and about 6,100 (1.1%) were called active. Inconclusive results, whose numbers are uncertain, are shown with a selection of clear calls. Calls follow the shape of the dose curve; as a rule, active = well fitted inhibition curve with a large enough effect; inconclusive = small, poorly fitted or top-dose-only effect, or another doubt; inactive = no such curve, though single readings can be large or run the other way. Potencies of inconclusive entries are doubtful fits and often do not repeat.

Sequences of proteins named here, by UniProt entry; tags and fusion partners are left off.
UniProt P18054, whole entry, looked up: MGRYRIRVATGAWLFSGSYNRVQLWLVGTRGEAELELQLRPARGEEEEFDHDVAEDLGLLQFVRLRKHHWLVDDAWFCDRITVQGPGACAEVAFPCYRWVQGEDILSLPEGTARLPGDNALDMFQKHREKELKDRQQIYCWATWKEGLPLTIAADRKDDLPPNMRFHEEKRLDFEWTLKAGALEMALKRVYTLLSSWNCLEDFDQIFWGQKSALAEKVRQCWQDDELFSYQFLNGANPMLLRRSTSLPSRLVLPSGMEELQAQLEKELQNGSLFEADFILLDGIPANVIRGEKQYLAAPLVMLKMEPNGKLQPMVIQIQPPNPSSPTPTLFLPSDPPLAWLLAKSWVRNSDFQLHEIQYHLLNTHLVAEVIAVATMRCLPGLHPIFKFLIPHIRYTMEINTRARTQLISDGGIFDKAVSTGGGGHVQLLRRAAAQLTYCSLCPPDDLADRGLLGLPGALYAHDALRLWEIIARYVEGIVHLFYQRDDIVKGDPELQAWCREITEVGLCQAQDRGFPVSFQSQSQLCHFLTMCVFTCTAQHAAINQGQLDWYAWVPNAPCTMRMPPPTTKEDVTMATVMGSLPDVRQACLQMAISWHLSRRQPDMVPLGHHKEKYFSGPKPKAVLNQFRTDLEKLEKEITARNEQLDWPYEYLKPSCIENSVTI

biological target: Polyunsaturated fatty acid lipoxygenase ALOX12 (Homo sapiens) (UniProt P18054); assay: Primary qHTS assay for inhibitors of human arachidonate 12S-lipoxygenase (ALOX12): Round 2; settings: purified 12hLO, xylenol orange hydroperoxide absorbance; activity change, negative = inhibition: at 108 µM (top of the series) unless noted
How it was run: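 Purified human 12hLO (150 nM final) in 25 mM Hepes, 0.01% Triton X-100, pH 7.0 was preincubated 15 min at room temperature with compound. Then 40 uM arachidonic acid was added, 30 min. Hydroperoxide was read by Fe-XO absorbance ratio 573/405 nm.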
% is scaled to controls: 0 for no effect and ±100 for the full control effect; potency is read from the fitted curve at half-maximal effect.

SMILES	Potency	activity change, negative = inhibition
Cc1ccccc1OCc1nnc(SCc2cc(=O)c3ccc(C)c(C)c3[nH]2)n1C	inconclusive: 112 µM [inhibitor, partial curve, poor fit]	–
C[C@H]([C@@H](O)[C@@H](O)[C@@H](C)C(C)(C)C)[C@H]1CC[C@H]2C3CC[C@H]4C[C@H](OS(=O)(=O)O)[C@@H](OS(=O)(=O)O)C[C@]4(C)[C@H]3CC[C@]12C (stereo not given in full)	inconclusive: 112 µM [inhibitor, single point]	–
O=C([C@H](Cc1ccc(O)cc1)n1cc(CCO)nn1)N1CCNCC1	inconclusive: 31.6 µM [inhibitor, partial curve, poor fit]	–
CN(C)Cc1ccccc1-c1cc(-n2ccnc2)ncn1	inconclusive: 7.94 µM [inhibitor, full curve, poor fit]	–
C#Cc1ccc([C@@H]2C=C(C(=O)O)O[C@H](OCCCCO)C2)cc1	inconclusive: 31.6 µM [inhibitor, partial curve, poor fit]	–
CCOC(=O)c1cccc(NC(=O)CS(=O)(=O)Cc2nc(-c3ccccc3C)oc2C)c1	inconclusive: 100 µM [inhibitor, single point]	–
COc1ccc2c(c1)CCCN2C1CNC1	inconclusive: 28.2 µM [inhibitor, full curve, poor fit]	–
Cc1nn2c(c1-c1ccccc1Oc1ccccc1)N(Cc1ccc(C(=O)O)cc1)CCC2	inconclusive: 25.1 µM [inhibitor, full curve]	–
Cc1cc2nn(-c3ccc(F)cc3)nc2cc1N	–	inactive: 9.07%
CCNc1c(NC(=O)Nc2cccc(C)c2C)c(=O)oc2ccccc12	inconclusive: 50.1 µM [inhibitor, partial curve, poor fit]	–
CCS(=O)(=O)c1oc(-c2ccc(F)cc2)nc1S(=O)(=O)c1ccc(Br)cc1	–	inactive: 5.37%
Clc1ccc(COc2ccccn2)c(Cl)c1	inconclusive: 63.1 µM [inhibitor, partial curve, poor fit]	–
CC(NC(=O)c1cc(-c2ccc3c(c2)OCO3)nc2ccccc12)C(C)(C)C (stereo not given)	–	inactive: -6.62%
CN(C)CCNC(=O)C1(O)c2cc(Br)ccc2NC(=O)N1c1ccc(Cl)cc1 (stereo not given)	inconclusive: 2.51 µM [inhibitor, full curve, poor fit]	–
O=C(CCCc1ccccc1)NCc1cn2ccsc2n1	–	inactive: 6.07%
COc1ccc(-c2noc(CCC(=O)N3CCN(c4cccc(F)c4)CC3)n2)cc1	–	inactive: 3.25%
COc1cc(C(=O)N2CCNCC2)cc(OC)c1OC	inconclusive: 0.398 µM [inhibitor, full curve, poor fit]	–
COc1ccccc1N1CCN(S(=O)(=O)CCNC(=O)C2CC(=O)N(c3ccccc3)C2)CC1 (stereo not given)	inconclusive: 126 µM [inhibitor, single point]	–
COCC(=O)NC[C@H]1OC[C@@H](NCc2cccc(C#N)c2)[C@@H]1O	–	inactive: 7.82% [at 176 µM]
Cc1ccc(N(CC(=O)NCc2ccco2)C(=O)CNS(=O)(=O)c2ccc(F)cc2)c(C)c1	inconclusive: 100 µM [inhibitor, partial curve, poor fit]	–
CSc1ncccc1C(=O)OCC(=O)Nc1nc(C)c(Cl)cc1Cl	inconclusive: 6.31 µM [inhibitor, full curve, poor fit]	–
O=C(c1cn(CCOc2ccc(F)cc2)c2ccccc12)C1CC1	–	inactive: 7.57%

SMILES	Potency	activity change, negative = inhibition
N#Cc1sc2nc3c(c(-c4cccnc4)c2c1N)CCC3	inconclusive: 17.8 µM [inhibitor, partial curve, poor fit]	–
OC[C@H]1O[C@@H](c2nc(-c3cccc4ccccc34)no2)[C@H](O)[C@@H]1O	–	inactive: -6.14%
CCOC(=O)CC1=NN(c2ccccc2)C(=O)/C1=C\c1ccc(OC)cc1OC	inconclusive: 31.6 µM [inhibitor, partial curve, poor fit]	–
C[C@H](CO)N1C[C@H](C)[C@H](CN(C)S(=O)(=O)c2ccccc2)Oc2c(NS(C)(=O)=O)cccc2C1=O	inconclusive: 112 µM [inhibitor, single point]	–
Cc1nc(N)sc1-c1csc(Nc2cccc(C(=O)O)c2)n1	inconclusive: 3.55 µM [inhibitor, full curve, poor fit]	–
Cc1ccc(S(=O)(=O)N(C)C)cc1NC(=O)c1cc(C(C)(C)C)nn1Cc1ccccc1	–	inactive: 0%
CC(C)(C)NC(=O)C1CCN(S(=O)(=O)c2ccc(Br)cc2)CC1	inconclusive: 31.6 µM [inhibitor, partial curve, poor fit]	–
CCCC1(CO)CCCN(Cc2nnc(-c3cccc(F)c3)o2)C1 (stereo not given)	inconclusive: 14.1 µM [inhibitor, full curve, poor fit]	–
CCCN(CCO)CCCc1ccccc1	inconclusive: 1.78 µM [inhibitor, full curve, poor fit]	–
CC(C)(C)c1ccc(C(=O)/C(C#N)=C/c2cccs2)cc1	inconclusive: 112 µM [inhibitor, single point]	–
CCN(C)C(=O)CCc1c(C)nn(-c2cccc(C)c2)c1Oc1ccc(F)cc1F	–	inactive: 7.53%
Cc1ccc(C(=O)N2N=C(c3ccc(Br)cc3)CC2c2ccccc2O)cc1 (stereo not given)	inconclusive: 22.4 µM [inhibitor, single point]	–
CCOC(=O)N1CCc2c(sc(NCc3sccc3C)c2C(=O)Nc2cc(Cl)ccc2OC)C1	inconclusive: 56.2 µM [inhibitor, partial curve, poor fit]	–
C=CC[C@@H](CC(=O)N[C@@H](CO)Cc1ccccc1)C(=O)N[C@H](C)COC(=O)[C@@H](CC=C)Cc1ccc(F)cc1	inconclusive: 100 µM [inhibitor, single point]	–
CC(C)(C)C(=O)Nc1c2c(nc3c1CCC3)CCCC2	inconclusive: 44.7 µM [inhibitor, partial curve, poor fit]	–
CC(=O)NCc1ccc(C(=O)CSc2nnc(C3CC3)n2C2CC2)cc1	inconclusive: 44.7 µM [inhibitor, partial curve, poor fit]	–
Cc1ccn2c(NC3CCCCC3)c(C(C)C)nc2c1	inconclusive: 126 µM [inhibitor, single point]	–
O=C1c2ccccc2S(=O)(=O)c2cc(N3CCOCC3)ccc21	inconclusive: 44.7 µM [inhibitor, partial curve]	–
O=C1C(c2ccccc2)SC(=Nc2ccccc2)N1S(=O)(=O)c1ccccc1 (stereo not given)	inconclusive: 17.8 µM [inhibitor, partial curve, poor fit]	–
CN(CC(=O)Nc1ccc(F)cc1)C(=O)CCc1ccccc1	–	inconclusive: -31.5% [inhibitor]
CCCCOc1ccc(C2(C)NC(=O)NC2=O)cc1 (stereo not given)	–	inactive: 3.35%
Cc1noc(C)c1-c1cc2cc(CN(C)C)oc2c(NCc2cccc(F)c2)n1	inconclusive: 28.2 µM [inhibitor, full curve]	–

SMILES	Potency	activity change, negative = inhibition
COc1ccc([C@H]2CC(=O)C=C(c3ccc(Cl)c(C(F)(F)F)c3)C2)cc1OC	–	inactive: 0.937%
CCCCC1(c2ccc(F)cc2)NC(=O)N(CC(=O)N2CCN(C(=O)c3ccco3)CC2)C1=O (stereo not given)	inconclusive: 39.8 µM [inhibitor, partial curve, poor fit]	–
COC(=O)c1ccc2nc(C[C@@H]3C[C@@H](C(C)C)[C@H](CNC4CCCCC4)C=C3C)[nH]c2c1	–	inactive: -15.1%
Cc1nc(C(C)C)sc1C(=O)NCc1ccccc1	–	inactive: 4.77%
CC(C)(C)OC(=O)N1CCN(C(C(=O)O)c2c[nH]c3cc(NC(=O)c4ccccc4)ccc23)CC1 (stereo not given)	–	inactive: 4.2%
S=c1[nH]nc(-c2n[nH]c3c2CCC3)n1/N=C/C=C/c1ccco1	inconclusive: 44.7 µM [inhibitor, partial curve, poor fit]	–
COc1cc(/C=N/NC(=O)Cn2nc([N+](=O)[O-])cc2C)cc(Br)c1OCc1ccccc1	–	inactive: -14.7%
CN(C)c1ccc(C=c2c3ccccc3n3c2c2ccccc2[n+]3C)cc1	active: 5.01 µM	–
COCCCn1c(=O)c2ccccc2n(Cc2cc(C(=O)OC)ccc2OC)c1=O	inconclusive: 100 µM [inhibitor, single point]	–
COc1ccc(CNC(=O)COC(=O)c2ccc3ccccc3n2)cc1	inconclusive: 39.8 µM [inhibitor, partial curve, poor fit]	–
CCc1cccc(CC)c1NC(=S)NC(C)c1ccccc1 (stereo not given)	active: 39.8 µM	–
Cn1c(=O)c2c(-c3ccc(C(C)(C)C)cc3)n(CC3CCCO3)cc2n(C)c1=O (stereo not given)	inconclusive: 56.2 µM [inhibitor, partial curve, poor fit]	–
COc1cccc([S+](=O)([O-])N2CCC3(CC2)C(=O)NN=C3c2cccnc2)c1	inconclusive: 17.8 µM [inhibitor, full curve]	–
COC[C@H]1C[C@@H](NC(=O)Nc2cccc(-c3noc(C)n3)c2)[C@H](O)[C@@H]1O	–	inactive: 97.3% [at 176 µM]
CCOC(=O)c1c[nH]c2c([N+](=O)[O-])cc(OC)cc2c1=O	inconclusive: 89.1 µM [inhibitor, single point]	–
O=C(Nc1nc(COc2ccccc2)cs1)C12CC3CC(CC(C3)C1)C2	active: 28.2 µM	–
NC1(C(=O)O)CCc2cc(P(=O)(O)O)ccc21 (stereo not given)	–	inactive: -0.838%
Cc1ccc(-n2nnnc2C2(Nc3ccccc3C)CCCC2)cc1	inconclusive: 112 µM [inhibitor, single point]	–
Cc1cccc(CNc2ccnc(-c3cccc(NS(C)(=O)=O)c3)n2)c1	inconclusive: 25.1 µM [inhibitor, full curve, poor fit]	–
CCOc1cc(/C=N/O)ccc1OCc1ccccc1Cl	inconclusive: 3.16 µM [inhibitor, single point]	–
Cc1nnc(SC(C)C(=O)Nc2ccc3ccccc3c2)[nH]c1=O (stereo not given)	inconclusive: 100 µM [inhibitor, partial curve, poor fit]	–
